{
  "source": "patent US20240293464A1",
  "about": "“TISSUE REPAIR” (priority 2021, published 2024)",
  "origin": "cited, not measured here",
  "system": "bleomycin-induced lung fibrosis",
  "conditions": "rats; by downregulating the TGF-β1/Smad3 signalling pathway; cited from earlier work",
  "note": "For at least one compound, name, drawing or mass did not settle the structure.",
  "data": [
    {"smiles": "CC1=C(/C=C/C(C)=C/C=C/C(C)=C/C(=O)O)C(C)(C)CCC1", "note": "[RA, retinoic acid]", "values": [
      {"measurement": "Effect on bleomycin-induced lung fibrosis", "value": "ameliorates bleomycin-induced lung fibrosis"}
    ]}
  ]
}
